Results deposited as PubChem BioAssay AID1053208 (Peter MacCallum Cancer Centre, 2014).
The deposit covers about 17,000 reagents; shown is an unselected part. 788 of them (4.7%) were called active. 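Calls rest on z-score classes alone; an extra cut-off of viability at most 70% of control was not applied to them.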 Not all columns of the deposit are shown. Reagent sequences are not shown.

- Aim: 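Synthetic lethal interactions between gene loss and doxorubicin in osteosarcoma cells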 (primary screen)
- Cell system: mouse osteosarcoma cells, early-passage culture from an engineered mouse model of fibroblastic bone tumour
- Reagents: siRNA pool against mouse genes, 40 nM
- Timing: about 120 h (48 h before drug, then 72 h with drug)
- Challenge: doxorubicin 100 nM for 72 h, roughly 30-40% inhibitory dose
- Read-out: 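Luminescent ATP signal taken as viability with or without 100 nM doxorubicin for 72 h; mean of two wells set against non-targeting siRNA and turned into robust z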
- Scale: viability z-score with doxorubicin: higher = more viable cells under doxorubicin; viability z-score without drug: higher = more viable cells with knock-down alone
- Call rule: 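Called active if knock-down leaves viability unchanged without drug (z within -2 to 2) but lowers it with doxorubicin (z at or under -2)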

Silencing of Psg18 (GeneID 26438) resulted in: combined z-score class no change with or without drug; viability z-score with doxorubicin 1.35; viability z-score without drug 0.51; inactive. Dlg4 (GeneID 13385) gave combined z-score class no change with or without drug; viability z-score with doxorubicin 1.91; viability z-score without drug -0.34; inactive. Knock-down of Birc5 (GeneID 11799) gave: combined z-score class low cell count with and without drug; viability z-score with doxorubicin -2.25; viability z-score without drug -2.87; inactive. For Slc32a1 (GeneID 22348), the entry reads combined z-score class no change with or without drug; viability z-score with doxorubicin -0.45; viability z-score without drug 0.34; inactive. Cfap69 (GeneID 207686) showed combined z-score class no change with or without drug; viability z-score with doxorubicin -1.12; viability z-score without drug -0.34; inactive. After knock-down of 1700102P08Rik (GeneID 112418), the record shows combined z-score class no change with or without drug; viability z-score with doxorubicin 0.45; viability z-score without drug 1.52; inactive.

Knock-down of Ttc34 (GeneID 242800) came out at: combined z-score class no change with or without drug; viability z-score with doxorubicin 0.67; viability z-score without drug 0.51; inactive. Against Ube2z (GeneID 268470), the entry reads combined z-score class no change with or without drug; viability z-score with doxorubicin 0.45; viability z-score without drug -0.84; inactive.

3 entries from above in another layout.
target	combined z-score class	viability z-score with doxorubicin	viability z-score without drug	call
Dlg4 (GeneID 13385)	no change with or without drug	1.91	-0.34	inactive
Birc5 (GeneID 11799)	low cell count with and without drug	-2.25	-2.87	inactive
Slc32a1 (GeneID 22348)	no change with or without drug	-0.45	0.34	inactive

The listing continues.
After knock-down of Tmem234 (GeneID 76799), the screen gave combined z-score class no change with or without drug; viability z-score with doxorubicin -0.56; viability z-score without drug 0.17; inactive. With knock-down of Atp1b3 (GeneID 11933), the record shows combined z-score class no change with or without drug; viability z-score with doxorubicin 0.34; viability z-score without drug 0.84; inactive. Flacc1 (GeneID 108812) scored combined z-score class no change with or without drug; viability z-score with doxorubicin 0.56; viability z-score without drug -0.34; inactive. Knock-down of Mtif3 (GeneID 76366) resulted in: combined z-score class no change with or without drug; viability z-score with doxorubicin 0.45; viability z-score without drug 1.18; inactive. Silencing of Hdac6 (GeneID 15185) came out at: combined z-score class no change with or without drug; viability z-score with doxorubicin -0.56; viability z-score without drug 0.17; inactive. Slc22a6 (GeneID 18399) gave combined z-score class no change with or without drug; viability z-score with doxorubicin -0.9; viability z-score without drug -0.34; inactive.

Against Sfxn3 (GeneID 94280), the values are combined z-score class low cell count with doxorubicin only; viability z-score with doxorubicin -2.25; viability z-score without drug -1.18; active. For Xylb (GeneID 102448), the entry reads combined z-score class no change with or without drug; viability z-score with doxorubicin -1.12; viability z-score without drug -0.51; inactive. Against Mppe1 (GeneID 225651) the deposit lists combined z-score class no change with or without drug; viability z-score with doxorubicin -0.45; viability z-score without drug -0.84; inactive. With knock-down of Iqgap1 (GeneID 29875), the record shows combined z-score class no change with or without drug; viability z-score with doxorubicin -0.45; viability z-score without drug 1.01; inactive. With knock-down of Ctdsp1 (GeneID 227292), the screen gave combined z-score class no change with or without drug; viability z-score with doxorubicin -1.57; viability z-score without drug -1.01; inactive.
